This experiment concerns the target SmG-His (human) (UniProt P62308). Nature of the experiment: co-purification (co-expression, nickel affinity, heparin chromatography); subunits co-expressed in E. coli BL21 (DE3), one subunit His-tagged and captured on a HisTrap FF column (20 mM Tris pH 7.5, 0.5 or 1 M NaCl), then HiTrap Heparin column.

Sequences of proteins named here, by UniProt entry; tags and fusion partners are left off.
UniProt P62308: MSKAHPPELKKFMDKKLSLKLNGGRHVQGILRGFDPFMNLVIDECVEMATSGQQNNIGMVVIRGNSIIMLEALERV
UniProt P62304: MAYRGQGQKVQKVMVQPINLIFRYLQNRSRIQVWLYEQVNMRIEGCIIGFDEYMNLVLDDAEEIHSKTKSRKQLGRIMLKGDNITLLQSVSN

No constants are given. Whether binding was seen depends on the method and setting. Some entries that bind do so weakly or less than the wild type.

Take SmE (from UniProt P62304 1-92): the binding entry is listed as “binds”.

Source of the values: publication PMC12477566.
